Test results: patent US20040197338A1, “Respiratory syncytial virus” (priority 2001, published 2004)
These are yes or no findings as the source states them, for the method shown. Binding seen in cells or lysates may run through a third protein. Some entries that bind do so weakly or less than the wild type.

Sequences of proteins named here, by UniProt entry; tags and fusion partners are left off.
UniProt P03421: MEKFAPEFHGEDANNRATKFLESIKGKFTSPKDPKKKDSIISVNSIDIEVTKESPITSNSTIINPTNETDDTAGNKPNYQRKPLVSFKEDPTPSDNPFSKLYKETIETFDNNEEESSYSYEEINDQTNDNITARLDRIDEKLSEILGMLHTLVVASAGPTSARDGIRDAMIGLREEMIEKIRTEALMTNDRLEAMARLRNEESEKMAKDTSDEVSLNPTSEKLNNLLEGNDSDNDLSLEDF
UniProt P03418: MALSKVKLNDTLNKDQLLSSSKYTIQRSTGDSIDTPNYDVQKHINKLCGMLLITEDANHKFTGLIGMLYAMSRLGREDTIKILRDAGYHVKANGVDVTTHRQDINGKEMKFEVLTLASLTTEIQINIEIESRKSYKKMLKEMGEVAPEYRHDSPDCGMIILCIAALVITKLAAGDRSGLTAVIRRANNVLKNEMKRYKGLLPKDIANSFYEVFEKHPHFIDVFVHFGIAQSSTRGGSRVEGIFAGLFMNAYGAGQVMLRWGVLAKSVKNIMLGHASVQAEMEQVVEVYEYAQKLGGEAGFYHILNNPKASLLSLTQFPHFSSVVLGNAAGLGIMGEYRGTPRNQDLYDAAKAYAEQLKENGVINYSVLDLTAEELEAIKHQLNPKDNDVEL

Molecular target: RSV P protein (phosphoprotein from RSV A2 infected CV-1 cells) (respiratory syncytial virus, A2 strain) (UniProt P03421)
Experiment: co-immunoprecipitation (RIPA) from RSV infected cell lysates (FIG. 2)

In the case of “RSV N protein (nucleocapsid protein from RSV A2 infected CV-1 cells) (from UniProt P03418 1-391)”, the binding is reported as “binds”.
